Drawing on PMC4605657, this text covers binding for one substance.

Protein sequences, listed by entry. Tags and fused reporters are not part of them.
UniProt J4W563: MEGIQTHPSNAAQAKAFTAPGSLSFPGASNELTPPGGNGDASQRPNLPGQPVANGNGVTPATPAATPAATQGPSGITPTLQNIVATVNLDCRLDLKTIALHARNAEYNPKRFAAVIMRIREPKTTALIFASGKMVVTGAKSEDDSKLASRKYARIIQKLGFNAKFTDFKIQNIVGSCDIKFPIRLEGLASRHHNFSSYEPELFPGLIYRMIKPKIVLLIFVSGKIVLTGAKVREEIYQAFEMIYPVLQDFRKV

Results are given in words; binding and its absence hold for the method and conditions named.

The target of the experiment is Beauveria bassiana TATA-binding protein (BbTBP) (Beauveria bassiana) (UniProt J4W563). Nature of the experiment: condition: only in the absence of DNA template (TBP = 1129 nM, MBF1 = 855 nM); native gel or EMSA; 6% non-denaturing PAGE, the two proteins combined in the absence of DNA template; TBP 1129 nM, MBF1 855 nM; 30 min at 37°C; same binding buffer; protein stain; both purified.

“Beauveria bassiana multiprotein bridging factor 1 (BbMBF1) (from UniProt J4WFU2 1-153)”: the binding result is “no binding”.
